In patent US20150125515A1 (UNIVERSITY OF ROCHESTER, priority 2012, published 2015):
For some assays here: Where a sequence shows no end group, the ends are not given. Where no end group is shown, it is not given here.

Columns and labels:
[1] = FTIR spectroscopy, proportions of secondary structure; assay type: physicochemical
Excerpt: The DATK substitution in novel MB DATK_Red and MB DATK_Ox peptides in Table 10 also leads to improved adsorption activity relative to that previously reported for MB without the DATK substitution (for MB activity, see Walther et al, “Dynamic Surface activity of a Fully-Synthetic Phospholipase-Resistant Lipid/Peptide Lung Surfactant,” PLoS ONE, 2(10):1-10: e1039. (2007), which is hereby incorporated by reference in its entirety). […] At a peptide/lipid ratio of 1/10, Fourier transform infrared (FTIR) spectra of MB DATK_Red with surfactant lipids (5:3:2 weight ratio DPPC:POPC:POPG) in sodium phosphate buffered saline (10 mM PBS, pH 7.4) indicated high secondary conformations for loop-turn (32.8%) and alpha-helix (27.4%). […] The ability of the DATK substitution to increase SP-B peptide activity while also simplifying post-synthesis processing (folding/oxidation) enhances the potential pharmaceutical utility of these or related novel materials.
To assess the structural properties of selected SP-C peptides with and without an ion-lock, FTIR spectroscopic analyses were performed on a peptide without palmitoyl groups that represents the native sequence of SP-C (i.e., SP-Cff; SEQ ID NO: 396), a SP-C mimic with elevated surfactant activity (i.e., SP-C33; SEQ ID NO: 397) and a SP-C mimic with a salt bridge at Glu-20 and Lys-24 (i.e., SP-Css ion-lock; SEQ ID NO: 45). SP-C33 and SP-Css ion-lock were prepared as described earlier, and SP-Cff was also synthesized with standard techniques (Waring et al., “The Role of Charged Amphipathic Helices in the Structure and Function of Surfactant Protein B,”J Peptide Res 66:364-374 (2005); Walther et al., “Critical Structural and Functional Roles for the N-terminal Insertion Sequence in Surfactant Protein B Analogs,” PLoS One 5:e8672 (2010), each of which is hereby incorporated by reference in its entirety). FTIR spectra were obtained for the above SP-C mimics in surfactant lipids (5:3:2 weight ratio DPPC:POPC:POPG) in 10 mM PBS (pH 7.4) at a peptide/lipid ratio (P/L) of 1/10. Subsequent spectral deconvolutions were performed to determine the relative proportions of secondary structure, as described earlier (Walther et al., “Critical Structural and Functional Roles for the N-terminal Insertion Sequence in Surfactant Protein B Analogs,” PLoS One 5:e8672 (2010), which is hereby incorporated by reference in its entirety). FTIR spectra indicated predominant α-helix (i.e., ˜63%) for the SP-Css ion-lock in surfactant lipids, as opposed to the very high β-sheet (i.e., ˜59%) observed with the corresponding FTIR spectrum of its related parent SP-Cff without an ion-lock. Consequently, insertion of the ion-lock (i.e., Glu^−-20 and Lys^+-24) in the mid-section of the poly-Val sequence produced a remarkable conformation shift in the SP-C structure, from an ‘amyloid-like’ β-sheet profile to one that is primarily α-helix. […] In the present studies, FTIR spectra and functional measurements on SP-Css ion-lock in surfactant lipids indicated high α-helix content in correlation with its high in vitro surfactant activity (Table 12). […] The elevated α-helix and in vitro adsorption surface pressure noted for SP-Css ion-lock are similar to those of SP-C33, but here are achieved with a novel mechanism in which a single ion-lock (i.e., Glu-20, Lys-24) is incorporated into the transmembrane poly-Val core.

[2] = Fmoc solid-phase peptide synthesis; H-Ser(OtBu)-HMPB NovaPEG resin or Wang-Ser(OtBu) resin; conditions: whole synthesis
[3] = surfactant lipids 5:3:2 weight ratio DPPC:POPC:POPG, 10 mM PBS pH 7.4, peptide/lipid ratio 1/10
[4] = lipid-mimic 35% HFIP/65% sodium phosphate buffer, pH 7.4

Question: What does the source list for “CWLCRALIKRIQAMIDATKRMLPQLVCRLVLRCS (N-ethylmaleimide-blocked Cys1 and Cys33; MB_datk) [MB DATK_Red]”?
Answer: FTIR secondary conformation, loop-turn [1, 3]: 32.8%; FTIR secondary conformation, α-helix [1, 3]: 27.4%

Question: Which “FTIR secondary conformation, α-helix” value [1, 3] does the source give for “GIPSSPVHLKRLLIVVVVVELIVKVIVGALLMGL (SP-C SS Ion Lock + L E20/K24) [SP-Css ion-lock]” here?
Answer: Its value is roughly 63%.

Question: For “GIPFFPVHLKRLLIVVVVVVLIVVVIVGALLMGL [SP-Cff]”, which “FTIR secondary conformation, β-sheet” value [1, 3] is on record?
Answer: Its value is roughly 59%.

Question: With CWLCRALIKRIQAMIDATKRMLPQLVCRLVLRCS as the substance, how does the “final purity (method not given)” value [2] read?
Answer: The value was “better than 95%”.

Question: With LGIPFFPSSLKRLLIILLL-NH2 as the substance, how does the “FTIR secondary conformation, α-helix” value [1, 4] read?
Answer: The value was roughly 45%.

Question: And the “FTIR secondary conformation, β-sheet” value [1, 4]?
Answer: The value was roughly 10%.

Question: With “IPSSPVHLKRLKLLLLLLLLILLLILGALLMGL (SP-c33) [previously reported SP-C peptide (Almlen et al. 2007)]” as the substance, how does the “FTIR secondary conformation, α-helix” value [1, 3] read?
Answer: The value was 67%.
